From US6875576B2, “Method for evaluating therapeutic efficacy” (Kosan Biosciences, Inc., priority 2001, dated 2005)
Some entries share one result that the patent states for a list of compounds.

Protein sequences, listed by entry. Tags and fused reporters are not part of them. Lines headed by an entry give the natural chain unless they say otherwise; changes in a name come on top.
UniProt O43193: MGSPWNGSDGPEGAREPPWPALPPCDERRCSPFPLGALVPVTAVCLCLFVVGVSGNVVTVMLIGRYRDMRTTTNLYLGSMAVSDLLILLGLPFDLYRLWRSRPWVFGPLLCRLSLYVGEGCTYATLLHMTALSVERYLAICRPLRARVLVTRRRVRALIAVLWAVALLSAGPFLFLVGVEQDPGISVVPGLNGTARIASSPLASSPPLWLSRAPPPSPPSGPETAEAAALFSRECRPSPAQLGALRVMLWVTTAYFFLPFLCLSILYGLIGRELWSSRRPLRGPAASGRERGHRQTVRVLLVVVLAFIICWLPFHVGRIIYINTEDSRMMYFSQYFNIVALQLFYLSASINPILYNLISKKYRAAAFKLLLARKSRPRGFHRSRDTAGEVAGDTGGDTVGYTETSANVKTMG

Biological target: T1, human motilin receptor (Homo sapiens, UniProt O43193)
T1 construct: expressed in transfected cells; host or cells: HEK293 (ATCC CRL-1573), transiently or stably transfected with pkos127-159 and pmtAEQ
Assay: Efficacy index: ratio of desensitization value to potency value, motilin receptor and aequorin co-expressed
Format: cell-based
Conditions: ratio of desensitization value (IC50) to potency value (EC50); cells co-expressing motilin receptor and aequorin
From the text: In one aspect of the present invention, the comparison of the potency value and the desensitization value is accomplished by calculating a ratio of the desensitization value to the potency value. This ratio is termed the “efficacy index”. […] In other words, because the concentration required for the desired biological response is also the concentration that induces desensitization, the compound is not likely to be therapeutically effective if the desired response is receptor activation. Under these circumstances, the concentration required for the desired biological response should be well below the concentration that induces desensitization. […]
Flasks containing HEK293 cells either transiently or stably expressing the motilin receptor and aequorin were used in receptor activation assays. Cells were grown to 80-100% confluence in T175 flasks containing MEMalpha medium with 10% v/v fetal bovine serum, harvested by trypsinization, and counted using a hemocytometer. […]
Stock solutions (20 mM) of test compounds were made in ethanol and diluted 100-fold into PBS. […] One of the injectors was used to add 100 uL of the cell suspension (˜5×10^4 to 10^5) to each well, and the bioluminescence response was measured over the course of 30-60 seconds. […] The F value of the cells to each test compound was calculated using equation 1, and data were fit to equation 2 to obtain EC50 values for the test compounds. […]

Row | Structure (SMILES) | efficacy index
1 | CC[C@H]1OC(=O)[C@H](C)[C@@H](OC2C[C@@](C)(OC)C[C@H](C)O2)[C@H](C)[C@@H](OC2O[C@H](C)C[C@H](N(C)CC)[C@H]2O)[C@]2(C)CC(C)=C(O2)[C@H](C)[C@@H](O)[C@H]1C (some centres unmarked) [ABT-229] | less than 10
2 | CC[C@H]1OC(=O)[C@H](C)[C@@H](OC2C[C@@](C)(OC)[C@@H](O)[C@H](C)O2)[C@H](C)[C@@H](OC2O[C@H](C)C[C@H](N(C)C(C)C)[C@H]2O)[C@]2(C)CC(C)=C(O2)[C@H](C)[C@@H](O)[C@]1(C)O (some centres unmarked) [EM-574] | less than 10
